{"sequences": {"note": "Protein sequences, listed by entry. Tags and fused reporters are not part of them.", "UniProt Q99720, whole entry": "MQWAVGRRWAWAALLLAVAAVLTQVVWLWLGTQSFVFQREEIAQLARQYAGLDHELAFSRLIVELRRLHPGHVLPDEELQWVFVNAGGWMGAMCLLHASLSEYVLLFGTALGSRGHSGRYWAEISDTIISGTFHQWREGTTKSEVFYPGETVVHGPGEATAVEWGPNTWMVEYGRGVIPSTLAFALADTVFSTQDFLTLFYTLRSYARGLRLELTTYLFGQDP"}, "source": "patent US20240315989A1", "about": "(priority 2021, published 2024)", "origin": "cited, not measured here", "note": "For at least one compound, name, drawing or mass did not settle the structure.", "data": [{"target": "σ1 site (Homo sapiens, UniProt Q99720)", "conditions": "σ1 vs σ2; cited from earlier work", "values": [{"smiles": "COC(=O)C1(c2ccc(C)cc2)CC1CN1CCC(O)(c2ccccc2)CC1", "note": "(single isomer, unassigned; (+)) [(+)-MR 200]", "Subtype Selectivity": "σ1/σ2"}, {"smiles": "O=C(CC1CCN(CC2CC2)CC1)c1ccc(F)cc1", "note": "[Dup 734]", "Subtype Selectivity": "σ1"}, {"smiles": "OC1(c2ccc(Cl)cc2)CCNCC1", "note": "[Haloperidol Metabolite I]", "Subtype Selectivity": "σ1"}, {"smiles": "CNC(C)Cc1ccc2c(c1)OCO2", "note": "(stereo not drawn) [MDMA]", "Subtype Selectivity": "σ1/σ2"}, {"smiles": "COc1cccc2c1CCC(=O)N2CCCN1CCN(c2cccc(Cl)c2)CC1", "note": "[OPC-14523]", "Subtype Selectivity": "σ1/σ2"}, {"smiles": "Cc1cccc(/C=N/N2CCN(C(c3ccccc3)c3ccccc3)CC2)n1", "note": "[Ropizine]", "Subtype Selectivity": "σ1"}]}]}
